Results as given in patent US6387643.
Results are given in words; binding and its absence hold for the method and conditions named. Binding seen in cells or lysates may run through a third protein. Some results given as binding are weak or reduced against the parent protein; the word gives no strength.

Target: T1, 56 kDa polypeptide of human platelet heparanase (human) (UniProt Q9Y251)
T1 sequence: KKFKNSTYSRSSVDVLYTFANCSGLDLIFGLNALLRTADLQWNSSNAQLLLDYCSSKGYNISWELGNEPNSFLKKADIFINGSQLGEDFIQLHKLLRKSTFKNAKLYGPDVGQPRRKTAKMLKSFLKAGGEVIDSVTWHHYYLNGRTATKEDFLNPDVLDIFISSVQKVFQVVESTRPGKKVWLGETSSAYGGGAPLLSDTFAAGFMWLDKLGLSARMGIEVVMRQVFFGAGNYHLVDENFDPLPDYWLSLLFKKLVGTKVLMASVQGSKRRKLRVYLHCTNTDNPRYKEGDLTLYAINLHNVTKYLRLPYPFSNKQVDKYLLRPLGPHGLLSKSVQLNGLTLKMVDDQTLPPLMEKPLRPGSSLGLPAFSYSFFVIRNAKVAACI
Experiment: gel filtration in non-denaturing solvents; co-purification

B1: 8 kDa polypeptide of human platelet heparanase (enzyme)
chain: QDVVDLDFFTQEPLHLVSPSFLSVTIDANLATDPRFLILLGSPKLRTLARGLSPAYLRFGGTKTDFLIFDPKKE
modifications: N-terminal Gln23 cyclized to pyrrolidonecarboxylic acid (PCA)
With B1 the binding was “binds”.
